Article PMC3597501 (2013)
Results are given in words; binding and its absence hold for the method and conditions named. For some of these results: Binding seen in cells or lysates may run through a third protein. Some results given as binding are weak or reduced against the parent protein; the word gives no strength. For some of these results: Where a sequence is shown, tags or fusion partners need not be part of it. One block for each binder: values may come before it.

What was measured:
[1] = target: T1, Taihu Dwarf1 (TUD1), full length, BiFC fusion (rice (O. sativa)) (UniProt Q10PI9); experiment: split reporter; BiFC in rice protoplasts; full-length TUD1 and D1 co-expressed; reconstituted CFP fluorescence
T1 sequence: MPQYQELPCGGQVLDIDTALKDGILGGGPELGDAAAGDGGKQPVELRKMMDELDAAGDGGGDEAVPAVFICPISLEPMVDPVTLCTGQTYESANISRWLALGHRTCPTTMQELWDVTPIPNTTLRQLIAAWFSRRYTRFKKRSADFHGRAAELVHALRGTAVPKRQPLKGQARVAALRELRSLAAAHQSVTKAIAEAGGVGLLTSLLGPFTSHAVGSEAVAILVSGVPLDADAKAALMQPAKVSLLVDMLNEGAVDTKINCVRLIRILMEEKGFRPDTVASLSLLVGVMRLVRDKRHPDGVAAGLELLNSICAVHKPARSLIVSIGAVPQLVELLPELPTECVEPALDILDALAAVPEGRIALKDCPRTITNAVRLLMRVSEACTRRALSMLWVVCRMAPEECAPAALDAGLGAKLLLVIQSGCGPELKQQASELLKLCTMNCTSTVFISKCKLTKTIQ

[2] = target: T2, GST-TUD1 (rice (O. sativa)) (UniProt Q10PI9); experiment: pull-down; GST pull-down; purified His-D1 incubated with GDP for 2 hours before GST-TUD1 was added; precipitated with glutathione-agarose beads; blots with anti-His and anti-GST; both purified
T2 sequence: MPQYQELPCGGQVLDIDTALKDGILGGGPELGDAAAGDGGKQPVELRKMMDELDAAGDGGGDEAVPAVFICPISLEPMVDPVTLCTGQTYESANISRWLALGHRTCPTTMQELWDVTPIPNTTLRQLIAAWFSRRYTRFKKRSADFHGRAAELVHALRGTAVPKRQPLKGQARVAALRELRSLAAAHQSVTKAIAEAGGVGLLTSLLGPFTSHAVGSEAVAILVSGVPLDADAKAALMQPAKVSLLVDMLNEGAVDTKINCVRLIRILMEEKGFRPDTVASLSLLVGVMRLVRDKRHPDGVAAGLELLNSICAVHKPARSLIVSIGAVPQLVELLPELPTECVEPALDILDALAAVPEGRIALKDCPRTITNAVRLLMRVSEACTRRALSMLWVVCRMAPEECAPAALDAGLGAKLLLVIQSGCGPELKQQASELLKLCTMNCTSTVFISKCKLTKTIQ

[3] = target: T2, GST-TUD1 (rice (O. sativa)); experiment: pull-down; GST pull-down; purified His-D1 incubated with GTPγS for 2 hours before GST-TUD1 was added; precipitated with glutathione-agarose beads; blots with anti-His and anti-GST; both purified
[4] = target: T3, TUD1, full length, in pGBKT7 (yeast two-hybrid) (rice (O. sativa)) (UniProt Q10PI9); experiment: two-hybrid; yeast AH109; pGBKT7-TUD1 with pGADT7-D1; three days on selective medium
T3 sequence: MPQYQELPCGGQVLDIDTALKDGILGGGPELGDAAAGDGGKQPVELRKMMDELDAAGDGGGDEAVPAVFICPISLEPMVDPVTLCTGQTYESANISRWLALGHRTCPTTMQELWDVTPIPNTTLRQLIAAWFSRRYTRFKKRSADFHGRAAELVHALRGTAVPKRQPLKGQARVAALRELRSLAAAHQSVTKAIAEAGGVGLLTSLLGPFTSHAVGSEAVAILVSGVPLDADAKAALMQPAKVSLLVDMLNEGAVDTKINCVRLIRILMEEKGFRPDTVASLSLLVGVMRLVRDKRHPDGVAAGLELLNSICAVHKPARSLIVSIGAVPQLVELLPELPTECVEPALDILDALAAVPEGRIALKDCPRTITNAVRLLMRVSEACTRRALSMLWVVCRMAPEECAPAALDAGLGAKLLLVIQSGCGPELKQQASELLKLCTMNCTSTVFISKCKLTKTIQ

- binding [1]: binds
B1: Heterotrimeric G protein alpha subunit D1/RGA1, full length, BiFC fusion (protein, UniProt Q0DJ33 1-380)
chain: MGSSCSRSHSLSEAETTKNAKSADIDRRILQETKAEQHIHKLLLLGAGESGKSTIFKQIKLLFQTGFDEAELRSYTSVIHANVYQTIKILYEGAKELSQVESDSSKYVISPDNQEIGEKLSDIDGRLDYPLLNKELVLDVKRLWQDPAIQETYLRGSILQLPDCAQYFMENLDRLAEAGYVPTKEDVLYARVRTNGVVQIQFSPVGENKRGGEVYRLYDVGGQRNERRKWIHLFEGVNAVIFCAAISEYDQMLFEDETKNRMMETKELFDWVLKQRCFEKTSFILFLNKFDIFEKKIQKVPLSVCEWFKDYQPIAPGKQEVEHAYEFVKKKFEELYFQSSKPDRVDRVFKIYRTTALDQKLVKKTFKLIDESMRRSREGT

- binding [2]: binds
- binding [3]: binds
B2: D1-tagged His (purified D1 fusion protein) (protein)
chain: MGSSCSRSHSLSEAETTKNAKSADIDRRILQETKAEQHIHKLLLLGAGESGKSTIFKQIKLLFQTGFDEAELRSYTSVIHANVYQTIKILYEGAKELSQVESDSSKYVISPDNQEIGEKLSDIDGRLDYPLLNKELVLDVKRLWQDPAIQETYLRGSILQLPDCAQYFMENLDRLAEAGYVPTKEDVLYARVRTNGVVQIQFSPVGENKRGGEVYRLYDVGGQRNERRKWIHLFEGVNAVIFCAAISEYDQMLFEDETKNRMMETKELFDWVLKQRCFEKTSFILFLNKFDIFEKKIQKVPLSVCEWFKDYQPIAPGKQEVEHAYEFVKKKFEELYFQSSKPDRVDRVFKIYRTTALDQKLVKKTFKLIDESMRRSREGT

- binding [4]: binds
B3: D1, full length, in pGADT7 (yeast two-hybrid) (protein, UniProt Q0DJ33 1-380)
chain: MGSSCSRSHSLSEAETTKNAKSADIDRRILQETKAEQHIHKLLLLGAGESGKSTIFKQIKLLFQTGFDEAELRSYTSVIHANVYQTIKILYEGAKELSQVESDSSKYVISPDNQEIGEKLSDIDGRLDYPLLNKELVLDVKRLWQDPAIQETYLRGSILQLPDCAQYFMENLDRLAEAGYVPTKEDVLYARVRTNGVVQIQFSPVGENKRGGEVYRLYDVGGQRNERRKWIHLFEGVNAVIFCAAISEYDQMLFEDETKNRMMETKELFDWVLKQRCFEKTSFILFLNKFDIFEKKIQKVPLSVCEWFKDYQPIAPGKQEVEHAYEFVKKKFEELYFQSSKPDRVDRVFKIYRTTALDQKLVKKTFKLIDESMRRSREGT
